We go through two molecules from article PMC12506094.

Amino acid sequences for entries named in this document (tags omitted).
UniProt P23458: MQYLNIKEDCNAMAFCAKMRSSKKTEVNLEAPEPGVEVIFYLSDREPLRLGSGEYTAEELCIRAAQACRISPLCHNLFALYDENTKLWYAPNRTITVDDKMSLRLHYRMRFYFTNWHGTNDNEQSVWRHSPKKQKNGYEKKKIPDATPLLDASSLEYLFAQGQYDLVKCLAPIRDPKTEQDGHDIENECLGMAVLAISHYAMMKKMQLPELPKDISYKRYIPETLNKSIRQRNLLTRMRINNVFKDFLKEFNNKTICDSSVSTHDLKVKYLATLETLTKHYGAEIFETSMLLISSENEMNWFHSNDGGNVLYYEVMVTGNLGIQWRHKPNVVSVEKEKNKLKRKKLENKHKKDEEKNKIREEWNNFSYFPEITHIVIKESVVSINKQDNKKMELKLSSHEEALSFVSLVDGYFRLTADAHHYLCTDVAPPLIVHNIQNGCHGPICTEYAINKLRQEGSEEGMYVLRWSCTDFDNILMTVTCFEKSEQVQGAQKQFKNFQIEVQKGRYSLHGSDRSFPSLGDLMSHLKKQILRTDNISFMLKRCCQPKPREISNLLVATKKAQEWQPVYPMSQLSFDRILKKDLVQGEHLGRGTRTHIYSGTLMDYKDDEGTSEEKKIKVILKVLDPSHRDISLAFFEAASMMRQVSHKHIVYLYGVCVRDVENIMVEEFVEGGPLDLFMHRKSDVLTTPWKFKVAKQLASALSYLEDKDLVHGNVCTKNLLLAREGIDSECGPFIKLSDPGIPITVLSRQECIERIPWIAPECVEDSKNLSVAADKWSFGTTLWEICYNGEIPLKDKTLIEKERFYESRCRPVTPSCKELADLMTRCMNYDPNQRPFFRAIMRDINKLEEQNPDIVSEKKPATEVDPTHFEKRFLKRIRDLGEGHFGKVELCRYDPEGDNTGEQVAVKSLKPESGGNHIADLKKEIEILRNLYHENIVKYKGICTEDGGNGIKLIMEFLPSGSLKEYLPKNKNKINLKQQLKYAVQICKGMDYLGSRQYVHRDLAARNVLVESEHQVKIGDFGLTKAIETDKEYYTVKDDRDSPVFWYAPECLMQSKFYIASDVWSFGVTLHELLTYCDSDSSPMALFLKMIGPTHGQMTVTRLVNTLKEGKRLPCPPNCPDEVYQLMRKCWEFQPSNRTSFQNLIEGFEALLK

These are yes or no findings as the source states them, for the method shown. For some assays here: Binding seen in cells or lysates may run through a third protein. Some entries that bind do so weakly or less than the wild type. For some assays here: Sequences can lack the tags named with a protein.

For assay [1], the target named is T1, endogenous STAT1 of HEK-293T cells treated with IFN-β (human (endogenous in HEK-293T)), P42224.
T1 chain: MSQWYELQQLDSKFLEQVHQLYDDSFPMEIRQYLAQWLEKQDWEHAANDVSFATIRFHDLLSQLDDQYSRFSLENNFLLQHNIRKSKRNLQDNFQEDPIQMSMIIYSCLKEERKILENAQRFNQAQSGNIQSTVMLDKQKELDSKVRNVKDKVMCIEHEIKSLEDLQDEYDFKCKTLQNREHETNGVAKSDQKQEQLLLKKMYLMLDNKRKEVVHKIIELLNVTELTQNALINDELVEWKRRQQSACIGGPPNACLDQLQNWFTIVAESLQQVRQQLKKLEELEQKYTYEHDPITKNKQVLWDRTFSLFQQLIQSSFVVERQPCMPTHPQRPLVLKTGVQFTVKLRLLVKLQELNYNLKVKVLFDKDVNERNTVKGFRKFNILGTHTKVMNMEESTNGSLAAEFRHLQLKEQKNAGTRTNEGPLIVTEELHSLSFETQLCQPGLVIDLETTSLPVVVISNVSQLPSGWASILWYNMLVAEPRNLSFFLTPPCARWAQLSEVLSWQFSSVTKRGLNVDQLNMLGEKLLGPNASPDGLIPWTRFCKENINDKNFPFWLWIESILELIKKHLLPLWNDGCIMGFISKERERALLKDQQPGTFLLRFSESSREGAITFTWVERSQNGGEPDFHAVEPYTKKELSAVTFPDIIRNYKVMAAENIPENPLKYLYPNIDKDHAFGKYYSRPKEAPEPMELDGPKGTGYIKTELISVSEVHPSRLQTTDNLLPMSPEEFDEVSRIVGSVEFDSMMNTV
Nature of the assay: native gel or EMSA; HEK-293T transfected with empty vector or Flag-3D, treated with IFN-β (1,000 U/mL) or solvent for 30 min; lysates on native PAGE and SDS-PAGE, blotted. The conditions noted are these: remark: other sources report otherwise. Background: In EMSA bound probe runs differently from free probe, usually more slowly.

The target of the next assay is Myc-tagged JAK1 (human) (UniProt P23458). As to the kind of experiment: co-IP.

B1: endogenous STAT1 of HEK-293T cells treated with IFN-β, P42224 1-750 (protein)
chain: MSQWYELQQLDSKFLEQVHQLYDDSFPMEIRQYLAQWLEKQDWEHAANDVSFATIRFHDLLSQLDDQYSRFSLENNFLLQHNIRKSKRNLQDNFQEDPIQMSMIIYSCLKEERKILENAQRFNQAQSGNIQSTVMLDKQKELDSKVRNVKDKVMCIEHEIKSLEDLQDEYDFKCKTLQNREHETNGVAKSDQKQEQLLLKKMYLMLDNKRKEVVHKIIELLNVTELTQNALINDELVEWKRRQQSACIGGPPNACLDQLQNWFTIVAESLQQVRQQLKKLEELEQKYTYEHDPITKNKQVLWDRTFSLFQQLIQSSFVVERQPCMPTHPQRPLVLKTGVQFTVKLRLLVKLQELNYNLKVKVLFDKDVNERNTVKGFRKFNILGTHTKVMNMEESTNGSLAAEFRHLQLKEQKNAGTRTNEGPLIVTEELHSLSFETQLCQPGLVIDLETTSLPVVVISNVSQLPSGWASILWYNMLVAEPRNLSFFLTPPCARWAQLSEVLSWQFSSVTKRGLNVDQLNMLGEKLLGPNASPDGLIPWTRFCKENINDKNFPFWLWIESILELIKKHLLPLWNDGCIMGFISKERERALLKDQQPGTFLLRFSESSREGAITFTWVERSQNGGEPDFHAVEPYTKKELSAVTFPDIIRNYKVMAAENIPENPLKYLYPNIDKDHAFGKYYSRPKEAPEPMELDGPKGTGYIKTELISVSEVHPSRLQTTDNLLPMSPEEFDEVSRIVGSVEFDSMMNTV
modifications: here or on the partner: phosphorylated after IFN-β (site not given); phosphorylated after IFN-β (site not given)
Regarding B1, the binding result in assay [1] is on record as “binds”.

B2: HA-tagged RNF125 (protein, UniProt Q96EQ8 1-232)
chain: MGSVLSTDSGKSAPASATARALERRRDPELPVTSFDCAVCLEVLHQPVRTRCGHVFCRSCIATSLKNNKWTCPYCRAYLPSEGVPATDVAKRMKSEYKNCAECDTLVCLSEMRAHIRTCQKYIDKYGPLQELEETAARCVCPFCQRELYEDSLLDHCITHHRSERRPVFCPLCRLIPDENPSSFSGSLIRHLQVSHTLFYDDFIDFNIIEEALIRRVLDRSLLEYVNHSNTT
As for B2, the binding result in the assay with Myc-tagged JAK1 (human) is on record as “binds”.
